Assay results reported in patent US8211875B2, “Local treatment of neurofibromas” (Nexgenix Pharmaceuticals Inc, priority 2005, dated 2012).

Assay: Cell proliferation assay (ATPlite) in a panel of NF1 related cell lines
Assay type: cell-based, human and mouse
Conditions: 72 h, several NF1-related cell lines, cultured 3 days, selection criterion IC50 equal or below 10 μM, read-out: IC50 (concentration required for inhibition of cell proliferation by 50%)
Protocol: Several physiologically relevant cells or cell lines were employed to measure compound potency in cell proliferation assays. These cells include: (1) NF1-deficient human malignant peripheral nerve sheath tumor (MPNST) cells, (2) Nf1^−/− mouse embryonic Schwann cells, and (3) Nf1- and p53-deficient mouse cell. […] All the other cells are grown in DMEM with 10% fetal bovine serum (FBS).
Various concentrations of each compound/agent to be tested were added to the growing media and the cells were then cultured for 3 days. […] Viable cells were measured by detecting luminescence generated from reaction of ATPlite solution and the ATP in the cells.

Structure (SMILES): Clc1ccccc1C(c1ccccc1)(c1ccccc1)n1ccnc1 [clotrimazole, Clotrimazole]
- IC50: ≤ 10 µM
